Data published in article PMC6377406.

Chains of the proteins cited; added tags and fusions are not shown. Residues count along the entry.
UniProt Q9BXM7, residues 78-581: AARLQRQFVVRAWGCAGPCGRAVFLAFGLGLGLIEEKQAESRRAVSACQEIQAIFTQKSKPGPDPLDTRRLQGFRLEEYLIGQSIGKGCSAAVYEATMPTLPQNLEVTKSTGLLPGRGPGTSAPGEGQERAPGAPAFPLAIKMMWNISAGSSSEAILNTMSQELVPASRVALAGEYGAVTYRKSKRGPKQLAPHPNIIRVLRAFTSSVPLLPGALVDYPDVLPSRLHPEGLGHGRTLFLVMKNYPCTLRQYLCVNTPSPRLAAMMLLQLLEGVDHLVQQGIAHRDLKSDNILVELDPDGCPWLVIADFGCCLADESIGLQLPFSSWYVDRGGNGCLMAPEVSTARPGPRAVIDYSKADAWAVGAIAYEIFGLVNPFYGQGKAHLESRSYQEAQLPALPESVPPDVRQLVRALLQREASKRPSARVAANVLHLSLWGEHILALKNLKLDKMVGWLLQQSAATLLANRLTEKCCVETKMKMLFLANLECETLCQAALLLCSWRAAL

Assays:
[1] = biological target: WT-PINK1-FLAG (UniProt Q9BXM7); test: co-IP; FLAG IP of HEK293 cells co-expressing MYC-tagged VCP domain constructs and PINK1-3xFLAG; immunoblot
[2] = biological target: PINK1-GFP (UniProt Q9BXM7); test: co-IP; GFP IP (μMACS Epitope Tag Protein Isolation kit) of lysates of transfected HEK293 cells; immunoblot
[3] = biological target: PINK1-GFP (UniProt Q9BXM7); test: as above; remark: listed apart in the source

MYC-tagged VCP D1 domain (from UniProt P55072) (domain or fragment)
binding [1]: binds

valosin-containing protein (VCP), endogenous in HEK293 cells (from UniProt P55072 1-806)
binding [2]: binds

B1: NSFL1C/p47, endogenous in HEK293 cells (protein, UniProt Q9UNZ2 1-370)
chain: MAAERQEALREFVAVTGAEEDRARFFLESAGWDLQIALASFYEDGGDEDIVTISQATPSSVSRGTAPSDNRVTSFRDLIHDQDEDEEEEEGQRFYAGGSERSGQQIVGPPRKKSPNELVDDLFKGAKEHGAVAVERVTKSPGETSKPRPFAGGGYRLGAAPEEESAYVAGEKRQHSSQDVHVVLKLWKSGFSLDNGELRSYQDPSNAQFLESIRRGEVPAELRRLAHGGQVNLDMEDHRDEDFVKPKGAFKAFTGEGQKLGSTAPQVLSTSSPAQQAENEAKASSSILIDESEPTTNIQIRLADGGRLVQKFNHSHRISDIRLFIVDARPAMAATSFILMTTFPNKELADESQTLKEANLLNAVIVQRLT
binding [3]: binds

Read-outs that look alike come from different tables or passages of the source. These are yes or no findings as the source states them, for the method shown. In cells and extracts the contact can be indirect. A result given as binding can be weak or reduced; the word gives no strength.
